Assay results published in PubChem BioAssay AID330 (DTP/NCI, 2004).
The list does not hold the whole screen: it is rich in T/C values a quarter to a half above the control, in often repeated tests (any T/C) and in doses without a T/C. Other doses and runs of a compound stand elsewhere. T/C gives the treated animals as a percentage of the vehicle group. Some doses have a count of surviving animals in place of a T/C: the source holds a T/C of zero for them, seemingly a mark for toxic or unscored doses. Some doses without a T/C left all or most animals alive at the check, yet need not have been tolerated: the source hardly ever lists a survival T/C far under the control, and the zero likely stands for such cases as well. Counts of survivors are from the toxicity check (mostly the fifth day) where no day follows; animals may have died later. Schedule codes are those of the source, read here as Q, the interval in days (D) or hours (H), X, the number of doses. Where survival is the endpoint, this PubChem deposit counts one and a half times the control or more as active, and values a quarter to a half above the control carry no call in these data; other NCI protocols may use other cut-offs. Some entries were tested several times; their values stand side by side, smallest first. Some T/C values carry the count of animals alive at the toxicity check (mostly the fifth day); where none is given, no animal had died by that day.

System: P388 leukemia ip, CD2F1 mice, survival T/C
Test: NCI In Vivo Anticancer Drug Screen. Data for tumor model P388 Leukemia (intraperitoneal) in CD2F1 (CDF1) mice
Conditions: T/C endpoint: median survival time, higher T/C = longer survival
[1] = dose: 100.0 mg/kg/injection, schedule: Q01DX009 (ip), vehicle: saline
[2] = dose: 200.0 mg/kg/injection, schedule: Q01DX009 (ip), vehicle: saline
[3] = dose: 200.0 mg/kg/injection, schedule: Q01DX005 (ip), vehicle: Klucel (hydroxypropylcellulose) (HPC)
[4] = dose: 20.0 mg/kg/injection, schedule: Q01DX009 (ip), vehicle: other

Compound: COCCCNC1=C(C#N)C(=O)NC(c2cccs2)S1 (centres undefined)
- T/C (dose: 200.0 mg/kg/injection, schedule: Q01DX009 (ip), vehicle: saline with Tween-80): 128 % of control
- T/C (dose: 400.0 mg/kg/injection, schedule: Q01DX009 (ip), vehicle: saline with Tween-80): 126 % of control [5 of 6 alive]

Compound: CCCCCCCCCCCCC[N+]1([O-])CCCCCC1
- survivor count (dose: 50.0 mg/kg/injection, schedule: Q01DX009 (ip), vehicle: saline): 6 of 6
- survivor count [1]: 4 of 6
- survivor count [2]: 0 of 6

Compound: N=C1CCC(=N)c2c1c(O)c1ccccc1c2O
- survivor count (dose: 50.0 mg/kg/injection, schedule: Q01DX005 (ip), vehicle: saline with Tween-80): 5 of 5
- survivor count (dose: 100.0 mg/kg/injection, schedule: Q01DX005 (ip), vehicle: saline with Tween-80): 5 of 5
- survivor count (dose: 200.0 mg/kg/injection, schedule: Q01DX005 (ip), vehicle: saline with Tween-80): 4 of 5

Compound: O=C(O)/C=C\S(=O)(=O)O
- survivor count (dose: 100.0 mg/kg/injection, schedule: Q04DX002 (ip), vehicle: saline): 2 of 6
- survivor count (dose: 200.0 mg/kg/injection, schedule: Q04DX002 (ip), vehicle: saline): 0 of 6
- survivor count (dose: 400.0 mg/kg/injection, schedule: Q04DX002 (ip), vehicle: saline): 0 of 6

Compound: O=C(O)C(O)CBr (centres undefined)
- survivor count (dose: 12.5 mg/kg/injection, schedule: Q04DX003 (ip), vehicle: saline): 6 of 6

Compound: Fc1ccc2nc3ccccc3c(SCCCCCSc3c4ccccc4nc4ccc(F)cc34)c2c1
- survivor count (dose: 240.0 mg/kg/injection, schedule: Q01DX005 (ip), vehicle: Klucel (hydroxypropylcellulose) (HPC)): 6 of 6

Compound: COc1nncc(-c2cnnc(OC)n2)n1
- survivor count (dose: 25.0 mg/kg/injection, schedule: Q01DX009 (ip), vehicle: saline with Tween-80): 5 of 6

Compound: c1ccc(Cc2cc[n+](Cc3ccccc3)cc2)cc1
- survivor count [1]: 2 of 6
- survivor count [2]: 0 of 6

Compound: O=C1c2ccccc2C(=O)N1CN1C(=O)c2ccccc2S1(=O)=O
- survivor count [3]: 6 of 6

Compound: COc1cccc2c(NCCCNCCCNc3c4ccccc4nc4c(OC)cccc34)c3ccccc3nc12
- T/C (dose: 1.25 mg/kg/injection, schedule: Q01DX009 (ip), vehicle: other): 130 % of control
- T/C (dose: 2.5 mg/kg/injection, schedule: Q01DX009 (ip), vehicle: other): 131 and 135 % of control
- T/C (dose: 5.0 mg/kg/injection, schedule: Q01DX009 (ip), vehicle: other): 141 % of control
- T/C (dose: 10.0 mg/kg/injection, schedule: Q01DX009 (ip), vehicle: other): 139 % of control
- T/C [4]: 149 % of control [5 of 6 alive]
- survivor count [4]: 5 of 6
- survivor count (dose: 40.0 mg/kg/injection, schedule: Q01DX009 (ip), vehicle: other): 0 of 6

Compound: CC(=O)OC1C(C)OC(OC(=O)C2CCC3C(C2)OC2(CC(OC(=O)/C=C/c4ccccc4)C(C)CO2)C32CO2)C(OC2OC(C)C(O)C(O)C2O)C1O (centres undefined)
- T/C (dose: 10.0 mg/kg/injection, schedule: Q01DX005 (ip), vehicle: saline + alcohol): 130 % of control
- T/C (dose: 20.0 mg/kg/injection, schedule: Q01DX005 (ip), vehicle: saline + alcohol): 126 and 130 % of control
- T/C (dose: 40.0 mg/kg/injection, schedule: Q01DX005 (ip), vehicle: saline + alcohol): 127 % of control

Compound: NC(Cc1ccc(O)cc1)C(=O)N/N=C/c1ccccc1Cl (centres undefined)
- survivor count [3]: 5 of 5

Compound: COc1cc(C[C@@H]2COC(=O)[C@]2(O)Cc2ccc(O)c(OC)c2)ccc1O
- T/C (dose: 1.0 mg/kg/injection, schedule: Q01DX009 (ip), vehicle: saline + alcohol): 130 % of control
- T/C (dose: 2.0 mg/kg/injection, schedule: Q01DX009 (ip), vehicle: saline + alcohol): 141 % of control
- T/C (dose: 4.0 mg/kg/injection, schedule: Q01DX009 (ip), vehicle: saline + alcohol): 137 % of control
- T/C (dose: 10.0 mg/kg/injection, schedule: Q01DX009 (ip), vehicle: alcohol): 146 % of control

Compound: O=c1[nH][nH]c2c([N+](=O)[O-])ccc(F)c12
- survivor count (dose: 100.0 mg/kg/injection, schedule: Q01DX009 (ip), vehicle: Klucel (hydroxypropylcellulose) (HPC)): 6 of 6
- survivor count (dose: 200.0 mg/kg/injection, schedule: Q01DX009 (ip), vehicle: Klucel (hydroxypropylcellulose) (HPC)): 6 of 6
